Melanoma cell counts after drug treatment

Source: doi:10.1371/journal.pone.0140310, primary screening data, rounded.

Drug key:
BI-78D3: O=c1[nH]nc(Sc2ncc([N+](=O)[O-])s2)n1-c1ccc2c(c1)OCCO2 at 1 µM
nilotinib: Cc1cn(-c2cc(NC(=O)c3ccc(C)c(Nc4nccc(-c5cccnc5)n4)c3)cc(C(F)(F)F)c2)cn1 at 1 µM
JZL184: O=C(Oc1ccc([N+](=O)[O-])cc1)N1CCC(C(O)(c2ccc3c(c2)OCO3)c2ccc3c(c2)OCO3)CC1 at 5 µM
GW441756: Cn1cc(/C=C2\C(=O)Nc3cccnc32)c2ccccc21 at 2 µM

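Human melanoma cell lines in 1,536-well plates were treated with one drug for 72 h, then fixed, stained and imaged. The read-out is cell count (nuclei) in % of the DMSO control; lower values mean stronger growth inhibition or killing. Concentrations were fixed for each drug; these are the higher of two levels. These are primary screening values without error estimates.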
Only some of the drugs and lines screened are listed, without regard to their results.

Cell line	JZL184	GW441756	BI-78D3	nilotinib
UACC-62	84.8	115	80.8	82.8
COLO 829	82.2	117	92.3	106
COLO 800	122	98.8	68.4	89.3
RVH-421	84.9	98.8	103	92.4
LB2518-MEL	107	118	93.0	120
SK-MEL-30	96.6	124	98.2	104
SK-MEL-2	97.5	93.2	88.2	113
WM1716	122	119	90.3	89.9
WM451Lu	107	114	82.6	118
IPC-298	108	86.7	83.3	113
UACC-257	98.0	76.7	78.0	117
MEL-HO	92.0	90.0	89.0	88.3

2 of the entries, repeated:

Cell line	JZL184	GW441756	BI-78D3	nilotinib
IPC-298	108	86.7	83.3	113
MEL-HO	92.0	90.0	89.0	88.3